Source: the supplement of paper PMC5949888
Most values lie at the floor of the assay. Slopes are relative: functional sequences can read slightly below zero.

Test system: Saccharomyces cerevisiae PS128 hsf1 delta, HSF1(1-493) fusion
Experiment: growth estimate (transactivation domain function in HSF1 fusion, heat-shock survival) (a.u. (slope of normalised read count over time)); higher = stronger growth at 37°C, i.e. more transactivation activity
Conditions: library: random library

Substance	growth estimate
PMRCGASRSGLFKGFNVNTA	< -0.25
RFFRF	< -0.25
RDSVRVYWDGRAGE	< -0.25
SAYIPNLTEEWPGSLV	7.65
SCDWAVKTACIPGAS	< -0.25
LTL	< -0.25
SRTVNVVGIEVKLIAVPAFR	< -0.25
GKLAYVQFDPGLNLPRPSGP	< -0.25
RNARIASATAREHRLSSADA	< -0.25
FRTGSLQQG	< -0.25
YWEKQRRRPRAGEPGVADLR	< -0.25
VRAI	< -0.25
LMAGGNSCDPTR	< -0.25
LAQLFRG	< -0.25
LGRCLCFSTCGKHTGFFHK	< -0.25
YLMFHVYSQCSGTKGTQDHA	< -0.25
SVRWYPSCPGVSSSMSRHLS	< -0.25
IHWSKGSAILGPGLRKGQRK	< -0.25
YRLRPSYFLSRLTVASTHVS	< -0.25
GTQASTGASKRCCRGVHLQR	< -0.25
TLNGFCTVWVLMCVSLPELH	< -0.25
PDAPDIEAARKSKSGVAVEN	< -0.25
LIVDIPPFTQLV	-0.187

Substance	growth estimate
LFFVKFSKTAVLGQPCTIVR	< -0.25
MKQATAVPRPRAEQCSERLD	< -0.25
TCSQGPFRARGGRWMEHSSR	< -0.25
RIWDQVEVCSQVTLI	< -0.25
LGTYVVCTL	< -0.25
WREVYEVSQVLDLWSSGLTP	-0.173
SVMEYSITFAPEDSSAGRSV	-0.145
NGEREGMWQRVNNYESKGFD	< -0.253
DQNQRE	< -0.25
KCKRKDLSEAPLFPHSHSDF	< -0.25
GLTKRCGRRADDGFEGMINR	< -0.25
KEESI	< -0.25
AVMTLRLSM	< -0.25
LFLLFYTFGSLLCRLPSAI	< -0.25
AQVYP	< -0.25
GRMVREDSWEGCVLRGFASL	< -0.25
VSEPMLLCKGFGSNAPS	< -0.25
WTDFNISLCRLQKRYPRVLT	< -0.25
PIAVQGRGLQRHSRGGTLQV	< -0.25
AICQLEISRPSVRSSARIGW	< -0.25
QVSGASTPERSSTGTDLSLG	< -0.25
AVARPDTLFIGSVTSRPIYC	< -0.25
RYWLFADFA	< -0.25

Substance	growth estimate
GQPFGVRALSRADAVR	< -0.25
GPSHVLSVSMGSRACGQAIL	< -0.25
TVDLTSLSENLTSS	-0.248
ECSDATFISCLRRLISIHVR	< -0.25
FMSASPLQALRLGCRARLAV	< -0.25
LVFTGRM	< -0.25
HVLLALRLTVVVHQ	< -0.25
NGSGFKNCRIWASRFWMKVA	< -0.25
RMVLLPSNLSGWGESQFIWS	< -0.25
WITWGPGEGCFTRSERLATR	< -0.25
MSNGCRLPSIRYVSPTWSTI	< -0.25
LGIQH	< -0.25
IVCLRKAQR	< -0.25
LPPAEWTADLHHITLAIHRW	< -0.25
PVVLVDYDPSESI	< -0.25
KPGWYGAGG	< -0.25
QGDFMRLLMREAVKTGLASL	< -0.25
VPLFFGIIRVLSCVVSFVMN	< -0.25
PNTDLQRYSHGPSRIAATLY	< -0.25
SVSIRGWNSTCISTVRSGIA	< -0.25
PHFNRRDWMSGAPMVQGRDV	< -0.25
PGSTQTHLDPGLRIITPLLP	< -0.25
RCYVSTSRSTTYSFCDAGFR	< -0.25

Substance	growth estimate
SSSQ	< -0.25
MLSDQSRPVQHLAGRPLKLH	< -0.25
CIFKTR	< -0.25
LKKTIGAEVYSGTPSTSHP	< -0.25
STRQRVLKFSMAAV	< -0.25
ESLEGRKRSVRSEVITTLGR	< -0.25
IWQGYPKWSLSTGSKRERGK	< -0.25
VRT	< -0.25
PREPFYFVFGTSHSVAIRTC	< -0.25
SGLGAEE	< -0.25
IVLGQ	< -0.25
ERPTAQTCRHVGVAYPQIPW	< -0.25
PKTERS	< -0.25
NTSELVTPGKFFVRC	< -0.25
HSGSQYRMFYKDARISILCP	< -0.25
FLVVINPSLSVMMKKPH	< -0.25
MLSLLRLDDSNSAVLRQRQ	< -0.25
GGLMSEALFEQRENCSERSF	< -0.25
TLSVRLTHSIRN	< -0.25
LTYLESLGGLLRS	< -0.25
CFYAHRVRSVLEQYLWR	< -0.25
SLWARLVGISDRWH	< -0.25
TDLEFCW	< -0.25

Substance	growth estimate
PSFGFARFSSQVPH	< -0.25
RPWRSRWPRRCVRSRGADGA	< -0.25
RRHGDAWGVILLTCMGPIDG	< -0.25
LFFFNKQLLPSKFAFVKWEC	< -0.25
FRSAVESTGRITLASRCGWR	< -0.25
AGPFDHHSGVSAGLLGSVRR	< -0.25
KRSDSRPSNPE	< -0.25
DSCGCPDGIELGSVSPRVFT	< -0.25
PNHC	< -0.25
RHKDI	< -0.25
LQYKVRWGLKLRCGEIVTIR	< -0.25
SREVGFVKLQNGKY	-0.214
GGDRTPGGLTFSHYWGSTQS	< -0.25
SFIYRQSNSVEPGIQSLSPR	< -0.25
SGFGP	< -0.25
VSGHSRNGNSKLNAVADMLI	< -0.25
SMSISVLGHQQM	< -0.25
PIIRCVTKESTVMRHNVRSP	< -0.25
GFPKKCRRRWTHPN	< -0.25
MSAVGVVTPEVEVVFIRPRS	< -0.25
PDGSSAQTYYANVDPATSLA	< -0.25
GTSFTRMIFS	< -0.25
SPGIRT	< -0.25

An excerpt of the results above, for reference:
Substance	growth estimate
PNHC	< -0.25
RHKDI	< -0.25

Going on with the list:

Substance	growth estimate
KFALFYES	-0.25
HGSIRIRVVPTSFDLREWAR	< -0.25
WSREREAGVIVFGQEVW	< -0.25
FGRTFTLTYQRL	< -0.25
RLADSQMRTRGR	< -0.25
GVVLVWTSIAVAD	< -0.25
MSGLE	< -0.25
WIVEEPPSMNGGTGYKTAWV	< -0.25
LWVTK	< -0.25
SSRSST	< -0.25
TFSTECLR	< -0.25
IQSSAA	< -0.25
LTAKESILCYTDGGSRLVES	< -0.25
NGDAR	< -0.25
CRPVLFFGHIFKYDVDAKLR	< -0.25
KSGRLK	< -0.25
MNR	< -0.25
AGVFLSVAICARSGVCDLA	< -0.25
SSIAVIHCQFHTVHSLLGTS	< -0.25
LGLSFSRKAVFIPLCDKRYQ	< -0.25
KRPLFQLDFELRLSPIVRHG	< -0.25
ISCWIL	< -0.25
QQSQMT	< -0.25

Looked up above:
MSGLE | growth estimate: < -0.25
SPGIRT | growth estimate: < -0.25

Part of the list above, as comma-separated lines.
Substance,growth estimate
GVVLVWTSIAVAD,< -0.25
WIVEEPPSMNGGTGYKTAWV,< -0.25
LWVTK,< -0.25
KSGRLK,< -0.25

Going on with the list:

Substance	growth estimate
HLLSSKPSVRIARGAVAGWV	< -0.25
DGSGLIDLNRPRAFRITYHS	< -0.25
NPRACSQRVRYFQMRRSLPC	< -0.25
WWTNNKRPMTQLFLVESSLS	< -0.25
TTRWIGGRVVPFLTGNCEAN	< -0.25
RAHVSVVVEERY	< -0.25
VCDATQTHYGQSVSTSHFKW	< -0.25
SDAFRRLLGI	-0.25
VTSVYI	< -0.25
KEHGYRQRS	< -0.25
SWLYTCILMFLDTYSRMRDD	< -0.25
GLDWCVS	< -0.25
YAGRLAPAYPIINTVPRGQA	-0.145
PNLELPVMV	< -0.25
SMVRQFSSVLSLYSSANRL	< -0.25
VRKL	< -0.25
SPSPRTLLRRAKGVDHHRLA	< -0.25
WGVTRVLRVGSFHVIWYFTG	< -0.25
SVF	< -0.25
